# Patent US9683018B2 (priority 2013, dated 2017)
# Assay: general procedure: Fmoc solid-phase peptide synthesis; 2-chlorotrityl chloride PS-resin (C-terminal acids); BAL-AM-PS-resin loaded with amines (C-terminal N-monosubstituted ca); HBTU/HOBt/NMM (manual synthesis, Example 2)
Substance,"isolated mass (whole synthesis, scale 0.10 mmol)","final HPLC purity (cyclisation step, 215 nm)"
pE-R-P-R-C*-S-H-K-G-P-Nle-C*-F-OH,38.5 mg,
pE-R-P-R-hC*-S-H-K-G-P-(D-Nle)-C*-y-OH,,>95%
